Test results taken from paper doi:10.1101/2022.08.25.505293.

Sequences of proteins named here, by UniProt entry; tags and fusion partners are left off.
UniProt P08670: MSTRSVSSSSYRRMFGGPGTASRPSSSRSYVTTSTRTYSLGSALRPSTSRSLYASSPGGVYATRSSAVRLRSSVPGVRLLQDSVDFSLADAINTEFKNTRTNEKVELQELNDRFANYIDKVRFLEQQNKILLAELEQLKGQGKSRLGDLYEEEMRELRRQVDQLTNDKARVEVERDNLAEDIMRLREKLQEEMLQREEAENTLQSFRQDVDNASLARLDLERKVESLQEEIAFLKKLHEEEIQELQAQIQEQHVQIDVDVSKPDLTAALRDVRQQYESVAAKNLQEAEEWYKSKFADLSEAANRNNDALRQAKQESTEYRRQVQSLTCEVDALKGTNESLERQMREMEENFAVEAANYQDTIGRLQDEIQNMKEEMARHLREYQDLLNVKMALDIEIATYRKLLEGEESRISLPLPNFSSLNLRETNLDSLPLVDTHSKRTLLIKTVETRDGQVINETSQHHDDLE

T1: GORAB fused to the biotin ligase BirA (UniProt Q5T7V8)
T1 sequence: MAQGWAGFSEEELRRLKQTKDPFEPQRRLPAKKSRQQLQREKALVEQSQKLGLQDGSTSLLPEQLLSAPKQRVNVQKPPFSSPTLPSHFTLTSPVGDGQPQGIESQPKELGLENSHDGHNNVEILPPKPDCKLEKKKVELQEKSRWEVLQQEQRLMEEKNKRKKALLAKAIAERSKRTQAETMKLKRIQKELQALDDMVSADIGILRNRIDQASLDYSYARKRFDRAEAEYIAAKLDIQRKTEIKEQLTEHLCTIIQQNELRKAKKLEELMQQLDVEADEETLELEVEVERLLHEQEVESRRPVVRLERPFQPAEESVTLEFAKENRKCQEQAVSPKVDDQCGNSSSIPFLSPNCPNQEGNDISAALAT


Each molecule was assayed against T1, GORAB fused to the biotin ligase BirA (assay: proximity labelling).

Row | binding | Molecule
1 | binds | vimentin (from UniProt P08670 1-466)
2 | binds | Scyl1 (protein, UniProt Q96KG9 1-808) MWFFARDPVRDFPFELIPEPPEGGLPGPWALHRGRKKATGSPVSIFVYDVKPGAEEQTQVAKAAFKRFKTLRHPNILAYIDGLETEKCLHVVTEAVTPLGIYLKARVEAGGLKELEISWGLHQIVKALSFLVNDCSLIHNNVCMAAVFVDRAGEWKLGGLDYMYSAQGNGGGPPRKGIPELEQYDPPELADSSGRVVREKWSADMWRLGCLIWEVFNGPLPRAAALRNPGKIPKTLVPHYCELVGANPKVRPNPARFLQNCRAPGGFMSNRFVETNLFLEEIQIKEPAEKQKFFQELSKSLDAFPEDFCRHKVLPQLLTAFEFGNAGAVVLTPLFKVGKFLSAEEYQQKIIPVVVKMFSSTDRAMRIRLLQQMEQFIQYLDEPTVNTQIFPHVVHGFLDTNPAIREQTVKSMLLLAPKLNEANLNVELMKHFARLQAKDEQGPIRCNTTVCLGKIGSYLSASTRHRVLTSAFSRATRDPFAPSRVAGVLGFAATHNLYSMNDCAQKILPVLCGLTVDPEKSVRDQAFKAIRSFLSKLESVSEDPTQLEEVEKDVHAASSPGMGGAAASWAGWAVTGVSSLTSKLIRSHPTTAPTETNIPQRPTPEGVPAPAPTPVPATPTTSGHWETQEEDKDTAEDSSTADRWDDEDWGSLEQEAESVLAQQDDWSTGGQVSRASQVSNSDHKSSKSPESDWSSWEAEGSWEQGWQEPSSQEPPPDGTRLASEYNWGGPESSDKGDPFATLSARPSTQPRPDSWGEDNWEGLETDSRQVKAELARKKREERRREMEAKRAERKVAKGPMKLGARKLD
3 | binds | COPI subunit γ2-COP (protein, UniProt Q9UBF2 1-871) MIKKFDKKDEESGSGSNPFQHLEKSAVLQEARIFNETPINPRRCLHILTKILYLLNQGEHFGTTEATEAFFAMTRLFQSNDQTLRRMCYLTIKEMATISEDVIIVTSSLTKDMTGKEDVYRGPAIRALCRITDGTMLQAIERYMKQAIVDKVSSVSSSALVSSLHMMKISYDVVKRWINEAQEAASSDNIMVQYHALGVLYHLRKNDRLAVSKMLNKFTKSGLKSQFAYCMLIRIASRLLKETEDGHESPLFDFIESCLRNKHEMVIYEAASAIIHLPNCTARELAPAVSVLQLFCSSPKPALRYAAVRTLNKVAMKHPSAVTACNLDLENLITDSNRSIATLAITTLLKTGSESSVDRLMKQISSFVSEISDEFKVVVVQAISALCQKYPRKHSVMMTFLSNMLRDDGGFEYKRAIVDCIISIVEENPESKEAGLAHLCEFIEDCEHTVLATKILHLLGKEGPRTPVPSKYIRFIFNRVVLENEAVRAAAVSALAKFGAQNESLLPSILVLLQRCMMDTDDEVRDRATFYLNVLQQRQMALNATYIFNGLTVSVPGMEKALHQYTLEPSEKPFDMKSIPLAMAPVFEQKAEITLVATKPEKLAPSRQDIFQEQLAAIPEFLNIGPLFKSSEPVQLTEAETEYFVRCIKHMFTNHIVFQFDCTNTLNDQLLEKVTVQMEPSDSYEVLSCIPAPSLPYNQPGICYTLVRLPDDDPTAVAGSFSCTMKFTVRDCDPNTGVPDEDGYDDEYVLEDLEVTVSDHIQKVLKPNFAAAWEEVGDTFEKEETFALSSTKTLEEAVNNIITFLGMQPCERSDKVPENKNSHSLYLAGIFRGGYDLLVRSRLALADGVTMQVTVRSKERTPVDVILASVG

Results are given in words; binding and its absence hold for the method and conditions named. In cells and extracts the contact can be indirect. These calls come from enrichment with a bait or labelling near it, and not all partners need be listed. Tags and fused reporters may be left off the sequences shown.
